Record: PubChem BioAssay AID1259424 (University of Nebraska Medical Center, 2018)
Assay: 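Find knockdowns that reproduce the expression shifts seen after KSR1 loss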 (primary screen). Cells: human HCT116 colon cancer cells. Knock-down reagent: siRNA pool against human genes, 50 nM. Read-out: 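Six signature mRNAs by branched-DNA multiplex assay, scaled to two housekeeping genes and non-targeting median, log2; matched to mean KSR1 knockdown profile by Pearson correlation and euclidean distance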. Direction: mean correlation with KSR1 profile and KSR1 correlation: higher = expression change more like KSR1 knockdown; mean distance from KSR1 profile: higher = expression change less like KSR1 knockdown.
Shown is a random part of about 14,000 reagents. 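Higher correlation or smaller distance means closer resemblance to KSR1 loss; control wells, including KSR1 knockdowns, recur on many plates.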 Reagent sequences are not shown. Not stated in the record: the time to read-out.

| gene | mean correlation with KSR1 profile | mean distance from KSR1 profile | KSR1 correlation, replicate 1 | KSR1 correlation, replicate 2 | KSR1 correlation, replicate 3 |
| --- | --- | --- | --- | --- | --- |
| SYDE2 (synapse defective Rho GTPase homolog 2) | 0.515 | 2.11 | 0.461 | 0.351 | 0.524 |
| SLC2A2 | 0.212 | 1.38 | 0.142 | 0.119 | 0.23 |
| LXN (latexin) | -0.825 | 2.26 | -0.823 | -0.595 | -0.744 |
| RAX2 (retina and anterior neural fold homeobox 2) | 0.00315 | 3.58 | -0.119 | -0.175 | -0.00223 |
| TMPRSS11E (transmembrane serine protease 11E) | -0.0552 | 2.18 | -0.0109 | -0.0986 | -0.166 |
| GZMB (granzyme B) | 0.466 | 1.48 | 0.449 | 0.471 | 0.44 |
| TAB1 (TGF-beta activated kinase 1 (MAP3K7) binding protein 1) | -0.133 | 2 | -0.188 | -0.328 | 0.0722 |
| UBE2N (ubiquitin conjugating enzyme E2 N) | -0.264 | 1.99 | -0.0809 | -0.382 | -0.435 |
| KIAA0930 | 0.0499 | 1.54 | -0.081 | 0.0487 | 0.0953 |
| REXO2 (RNA exonuclease 2) | -0.185 | 1.95 | -0.0272 | -0.36 | -0.162 |
| ZP4 (zona pellucida glycoprotein 4) | -0.437 | 1.94 | -0.323 | -0.295 | -0.397 |
| ZBED8 (zinc finger BED-type containing 8) | 0.0494 | 2.29 | -0.105 | 0.118 | 0.0166 |
| ARAP3 (ArfGAP with RhoGAP domain, ankyrin repeat and PH domain 3) | -0.605 | 1.98 | -0.574 | -0.474 | -0.727 |
| LIG3 (DNA ligase 3) | 0.129 | 1.71 | 0.108 | -0.0795 | 0.114 |
| TBX3 (T-box transcription factor 3) | -0.294 | 1.74 | 0.118 | 0.0665 | -0.421 |
| CD96 (CD96 molecule) | -0.108 | 2.61 | -0.0912 | -0.0228 | -0.385 |
| ANXA8L1 (annexin A8 like 1) | -0.0304 | 2.01 | -0.508 | -0.291 | 0.27 |
| MRPL30 (mitochondrial ribosomal protein L30) | -0.174 | 1.9 | -0.101 | -0.0457 | -0.321 |
| HAGHL (hydroxyacylglutathione hydrolase like) | -0.149 | 1.48 | -0.331 | -0.31 | -0.177 |
| COXFA4L2 (cytochrome c oxidase hypoxia associated subunit FA4L2) | -0.0107 | 1.98 | 0.0938 | -0.205 | -0.337 |

Next part, starting with the last 5 of the part before.
| gene | mean correlation with KSR1 profile | mean distance from KSR1 profile | KSR1 correlation, replicate 1 | KSR1 correlation, replicate 2 | KSR1 correlation, replicate 3 |
| --- | --- | --- | --- | --- | --- |
| CD96 (CD96 molecule) | -0.108 | 2.61 | -0.0912 | -0.0228 | -0.385 |
| ANXA8L1 (annexin A8 like 1) | -0.0304 | 2.01 | -0.508 | -0.291 | 0.27 |
| MRPL30 (mitochondrial ribosomal protein L30) | -0.174 | 1.9 | -0.101 | -0.0457 | -0.321 |
| HAGHL (hydroxyacylglutathione hydrolase like) | -0.149 | 1.48 | -0.331 | -0.31 | -0.177 |
| COXFA4L2 (cytochrome c oxidase hypoxia associated subunit FA4L2) | -0.0107 | 1.98 | 0.0938 | -0.205 | -0.337 |
| ASGR1 (asialoglycoprotein receptor 1) | -0.249 | 2.37 | -0.253 | -0.162 | -0.613 |
| SMCO4 (single-pass membrane protein with coiled-coil domains 4) | -0.603 | 3.89 | -0.487 | -0.561 | -0.711 |
| IPO8 (importin 8) | -0.605 | 2.28 | -0.4 | -0.658 | -0.734 |
| TBCCD1 (TBCC domain containing 1) | -0.809 | 6.82 | -0.432 | -0.663 | -0.567 |
| TMC5 (transmembrane channel like 5) | 0.285 | 1.66 | 0.342 | 0.36 | 0.228 |
| NFIX (nuclear factor I X) | -0.494 | 3.08 | -0.351 | -0.183 | -0.755 |
| CNTN5 (contactin 5) | -0.807 | 2.55 | -0.788 | -0.834 | -0.817 |
| DCPS (decapping enzyme, scavenger) | 0.0501 | 1.87 | -0.0455 | -0.202 | -0.134 |
| DPP6 (dipeptidyl peptidase like 6) | -0.268 | 2.43 | -0.499 | -0.128 | -0.248 |
| ASCL1 (achaete-scute family bHLH transcription factor 1) | 0.897 | 1.34 | 0.89 | 0.862 | 0.825 |
| TEX13B (testis expressed 13B) | -0.685 | 2.75 | -0.686 | -0.548 | -0.621 |
| RPS8 (ribosomal protein S8) | -0.124 | 2.17 | -0.168 | -0.209 | 0.0107 |
| ZNF432 (zinc finger protein 432) | -0.0908 | 1.66 | -0.0605 | 0.0917 | 0.0413 |
| INPPL1 (inositol polyphosphate phosphatase like 1) | 0.0592 | 1.78 | -0.0488 | 0.0167 | 0.17 |
| CYSTM1 (cysteine rich transmembrane module containing 1) | 0.598 | 3.06 | 0.547 | 0.513 | 0.392 |
| KRT83 (keratin 83) | -0.133 | 1.61 | -0.382 | 0.0558 | -0.074 |
| MYOZ2 (myozenin 2) | -0.489 | 3.39 | -0.519 | -0.538 | -0.62 |
| MIOX (myo-inositol oxygenase) | -0.835 | 2.38 | -0.588 | -0.527 | -0.893 |
| CDK18 (cyclin dependent kinase 18) | 0.249 | 2.92 | 0.562 | 0.127 | 0.167 |
| ARMC7 (armadillo repeat containing 7) | -0.59 | 2.33 | -0.709 | -0.592 | -0.449 |
| PTN (pleiotrophin) | -0.186 | 2.78 | -0.199 | -0.196 | 0.11 |
| RNF144A (ring finger protein 144A) | -0.193 | 1.98 | -0.463 | 0.00552 | -0.54 |
| GATAD2B (GATA zinc finger domain containing 2B) | 0.584 | 2.16 | 0.856 | 0.293 | 0.541 |
| PROS1 (protein S) | -0.0148 | 1.75 | 0.128 | -0.192 | -0.00433 |
| ITGB3 (integrin subunit beta 3) | 0.62 | 1.01 | 0.577 | 0.508 | 0.747 |
| HDAC4 (histone deacetylase 4) | 0.00771 | 3.13 | 0.0497 | -0.406 | 0.185 |
| LSM7 | -0.225 | 2.79 | 0.0909 | -0.421 | -0.249 |
| SLITRK2 (SLIT and NTRK like family member 2) | 0.839 | 0.949 | 0.783 | 0.659 | 0.848 |
| VCX3A (variable charge X-linked 3A) | -0.711 | 1.26 | -0.531 | -0.341 | 0.578 |
| DSCC1 | -0.848 | 6.56 | -0.729 | -0.149 | -0.14 |
